Test results from paper PMC8557881.

Molecular target: T1, UL84 protein of HCMV strain AD169 (infected cells) (human cytomegalovirus (HCMV) strain AD169) (UniProt P16727)
T1 sequence: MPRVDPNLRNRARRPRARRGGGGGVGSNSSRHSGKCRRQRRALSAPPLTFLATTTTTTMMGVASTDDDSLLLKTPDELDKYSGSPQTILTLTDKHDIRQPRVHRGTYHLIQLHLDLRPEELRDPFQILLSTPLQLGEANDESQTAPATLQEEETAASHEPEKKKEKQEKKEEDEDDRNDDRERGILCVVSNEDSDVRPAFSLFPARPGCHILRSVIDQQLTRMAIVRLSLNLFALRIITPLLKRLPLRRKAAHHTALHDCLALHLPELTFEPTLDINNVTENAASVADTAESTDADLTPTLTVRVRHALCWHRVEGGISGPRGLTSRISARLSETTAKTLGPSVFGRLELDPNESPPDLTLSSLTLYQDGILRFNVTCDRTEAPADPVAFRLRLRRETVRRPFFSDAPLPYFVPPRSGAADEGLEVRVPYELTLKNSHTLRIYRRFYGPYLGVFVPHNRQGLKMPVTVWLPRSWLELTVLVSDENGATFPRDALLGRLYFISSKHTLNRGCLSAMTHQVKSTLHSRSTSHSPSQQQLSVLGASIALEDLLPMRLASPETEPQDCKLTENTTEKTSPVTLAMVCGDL
Assay: co-IP; HF cells infected with AD169, FIX or TB40E (MOI = 1), lysate harvested at 6 dpi (NP-40 lysis buffer or RIPA buffer, sonicated); IP with UL84 antibody and protein G Dynabeads at 4°C; blot probed with IE2 antibody, reprobed with UL84 antibody

Row | Substance | binding
1 | IE2-40 of HCMV strain AD169 (infected cells) | binds
2 | IE2-60 of HCMV strain AD169 (infected cells) | binds

These are yes or no findings as the source states them, for the method shown. In cells and extracts the contact can be indirect. A result given as binding can be weak or reduced; the word gives no strength.
